Assay [1] deals with T1, expanded human PABPN1, tract of 17 alanine residues, His-tagged, biotinylated (human) (UniProt Q86U42).
T1 sequence (chain, biotin (EZ-Link PEO-Maleimide Activated Biotin)): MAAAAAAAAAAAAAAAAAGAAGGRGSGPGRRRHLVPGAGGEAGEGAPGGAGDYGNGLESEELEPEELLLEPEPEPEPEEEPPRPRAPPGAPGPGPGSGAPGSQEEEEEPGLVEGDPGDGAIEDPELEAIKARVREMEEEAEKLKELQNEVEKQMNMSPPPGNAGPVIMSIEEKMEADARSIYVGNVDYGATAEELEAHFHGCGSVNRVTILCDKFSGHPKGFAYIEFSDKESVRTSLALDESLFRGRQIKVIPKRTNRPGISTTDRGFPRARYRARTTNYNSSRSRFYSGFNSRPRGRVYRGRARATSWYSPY
The assay is described as follows: affinity purification with mass spectrometry; biotinylated His-PABPN1 (2 µg) on streptavidin-agarose beads, incubated with RNase A-treated extracts of undifferentiated (myoblasts) and differentiated (myotubes) C2 cells, 4 h at 4°C, 20 mM Tris pH 8.0, 200 mM KCl, 10% glycerol; bands excised from SDS-PAGE, MALDI-MS; only the target purified.

In assay [2] the target is T2, normal human PABPN1 (poly(A)-binding protein nuclear 1), homopolymer of 10 alanine residues, His-tagged, biotinylated (human) (UniProt Q86U42).
T2 sequence (chain, biotin (EZ-Link PEO-Maleimide Activated Biotin)): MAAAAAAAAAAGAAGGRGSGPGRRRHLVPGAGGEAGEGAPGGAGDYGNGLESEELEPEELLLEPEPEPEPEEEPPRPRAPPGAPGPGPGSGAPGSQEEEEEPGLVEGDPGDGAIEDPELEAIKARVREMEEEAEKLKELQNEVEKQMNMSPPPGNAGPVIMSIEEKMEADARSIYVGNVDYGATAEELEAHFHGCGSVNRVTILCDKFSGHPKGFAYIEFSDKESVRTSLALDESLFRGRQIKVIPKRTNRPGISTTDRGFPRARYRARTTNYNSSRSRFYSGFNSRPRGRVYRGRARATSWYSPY
Described as above.

These are yes or no findings as the source states them, for the method shown. In cells and extracts the contact can be indirect. A yes stands for co-enrichment or nearness to the bait. Other partners may have been found. Where a sequence is shown, tags or fusion partners need not be part of it.

We go through two molecules from PMC2712759, “Hsp70 Chaperones and Type I PRMTs Are Sequestered at Intranuclear Inclusions Caused by Polyalanine Expansions in PABPN1” (PLoS ONE, 2009).

B1: PABPN1 identified by mass spectrometry in the pull-down (mouse entry) (protein, UniProt Q8CCS6 1-302)
chain: MAAAAAAAAAAGAAGGRGSGPGRRRHLVPGAGGEAGEGDPGGAGDYGNGLESEELEPGELLPEPEPEEEPPRPRAPPGAPGPGPGSGAPGSQEEEEEPGLVEADPGDGAIEDPELEAIKARVREMEEEAEKLKELQNEVEKQMNMSPPPGNAGPVIMSLEEKMEADARSIYVGNVDYGATAEELEAHFHGCGSVNRVTILCDKFSGHPKGFAYIEFSDKESVRTSLALDESLFRGRQIKVIPKRTNRPGISTTDRGFPRSRYRARTTNYNSSRSRFYSGFNSRPRGRIYRGRARATSWYSPY
On to B1, for which the binding entry in assay [1] and in assay [2] was “binds” in each case.

B2: Ski-interacting protein (SKIP) (protein, UniProt Q9CSN1 1-536)
chain: MALTSFLPAPTQLSQDQLEAEERARSQRSLQTSLVSSRREPPPYGYRKGWIPRLLEDFGDGGAFPEIHVAQYPLDMGRKKKMSNALAIQVDPEGKIKYDAIARQGQSKDKVIYSKYTDLVPKEVMNADDPDLQRPDEEAIKEITEKTRVALEKSVSQKVAAAMPVRAADKLAPAQYIRYTPSQQGVAFNSGAKQRVIRMVEMQKEPMEPPRFKINKKIPRGPPSPPAPVMHSPSRKMTVKEQQEWKIPPCISNWKNAKGYTIPIDKRLAADGRGLQTVHINENFAKLAEALYIADRKAREAVEMRAQVERKMAQKEKEKHEEKLREMAQKARERRAGIKTHVEKEDGEARERDEIRHDRRKERQHDRNLSRAAPDKRSKLQRNENRDISEVIALGVPNPRTSNEVQYDQRLFNQSKGMDSGFAGGEDEIYNVYDQAWRGGKDMAQSIYRPSKNLDKDMYGDDLEARIKTNRFVPDKEFSGSDRKQRGREGPVQFEEDPFGLDKFLEEAKQHGGSKRPSDSSRPKEHEHEGKKRRKE
With B2, the binding result in assay [1] and in assay [2] was “binds” each time.
